Measurements taken from article PMC8125995, “In Vitro Antiplasmodial and Cytotoxic Activities of Compounds from the Roots of Eriosema montanum Baker f. (Fabaceae)” (Molecules, 2021).

System: 3D7 strain of Plasmodium falciparum
Assay: In vitro antiplasmodial activity (SYBR Green, 48 h)
Type: cell-based
Conditions: SI = CC50 (THP-1) / IC50 (P. falciparum 3D7)
Description: Continuous in vitro cultures of asexual erythrocyte stages of P. falciparum, chloroquine-sensitive 3D7 strain was maintained according to the procedure of Trager and Jensen. Strains were obtained from ATCC, Bei Resources. The host cells were human red blood cells (A+). […] Compound stock solutions were prepared in DMSO at 10 mg/mL (for an extract) and 1 mg/mL (for an isolated compound). Then, the solution is directly diluted in the medium; each test sample was applied in a series of eight 2-fold dilutions in a 96-well plate, starting with 100 µg/mL and 10 µg/mL for the crude extract and purified compounds, respectively, and tested in triplicate. The effect of compounds on the parasite growth was estimated, after 48 h incubation, by using the SYBR Green, a DNA intercalating compound. Artemisinin (Sigma-Aldrich, Machelen, Belgium), at an initial concentration of 100 ng/mL, was used as positive control in all experiments. The half-maximal inhibitory concentration (IC50) values were calculated from graphs.

O=c1c(-c2ccc(O)cc2)coc2cc(O)cc(O)c12 [Compound 7, genistein]
SI: 15.0
